Results published in paper PMC4066780.
These are yes or no findings as the source states them, for the method shown. In cells and extracts the contact can be indirect. Where a sequence is shown, tags or fusion partners need not be part of it.

Chains of the proteins cited; added tags and fusions are not shown.
UniProt P63242: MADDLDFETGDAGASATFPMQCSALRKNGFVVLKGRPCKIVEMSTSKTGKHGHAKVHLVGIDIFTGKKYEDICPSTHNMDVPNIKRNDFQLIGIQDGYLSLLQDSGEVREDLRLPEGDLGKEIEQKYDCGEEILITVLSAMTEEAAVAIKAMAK

Biological target: T1, FLAG-tagged QKI-6 (quaking I isoform 6) (UniProt Q9QYS9)
T1 sequence: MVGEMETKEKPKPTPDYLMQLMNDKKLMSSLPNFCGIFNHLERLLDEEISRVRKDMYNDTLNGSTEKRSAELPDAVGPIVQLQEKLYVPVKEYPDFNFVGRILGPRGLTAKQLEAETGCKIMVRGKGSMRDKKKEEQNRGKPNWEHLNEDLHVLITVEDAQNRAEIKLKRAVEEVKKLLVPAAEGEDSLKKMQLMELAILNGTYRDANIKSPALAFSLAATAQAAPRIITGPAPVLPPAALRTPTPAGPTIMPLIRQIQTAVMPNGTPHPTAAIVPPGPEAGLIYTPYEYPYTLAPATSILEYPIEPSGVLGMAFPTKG
Experiment: co-IP; UV cross-linked (400 mJ) brain stem of FLAG-QKI-6 transgenic mice; cytoplasmic lysate (20 mM Tris pH 7.5, 100 mM KCl, 5 mM MgCl2, 0.5% Triton X) with 0.01% SDS; anti-Flag-M2 beads overnight at 4°C; immunoblot of the immunoprecipitate

binding: no binding
Substance: eIF5α (housekeeping protein) (from UniProt P63242 1-154)
